Taken from: PubChem BioAssay AID1159590 (NIAID, 2016)

Assay: 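Which core TLR signalling genes NF-kB activation by Pam3CSK4 depends on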
System: mouse RAW264.7 macrophage reporter cells expressing GFP-p65 and a Tnf promoter-mCherry
Reagents: single siRNA against mouse genes
Timing: 48 to 72 hours after siRNA transfection, then 40 minutes of ligand
Treatment: Pam3CSK4 (TLR2/1 agonist) for 40 minutes before fixation; dose not given
Detection: 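GFP-p65 nuclear to cytoplasmic intensity ratio from imaging, normalised per plate by median and MAD, given as robust z against negative controls, mean of replicates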
Direction: p65 nuclear entry z-score: higher = more p65 moved into nuclei than in negative-control wells
Rule for the call: In these data the active calls have p65 nuclear entry z-score, replicate mean at about -1.5 or lower, or at about 1.5 or higher
Calls: active = strong change, up or down; inactive = little change
Shown is one part, drawn at random, of 756 reagents tested. 128 of them (17%) count as active. 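Calls are two-sided: both reduced and increased p65 nuclear entry count as active.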 The numbers tell different reagents against one gene apart. The record does not give: the amount of reagent.

target gene,reagent no.,"p65 nuclear entry z-score, replicate mean",activity call
Pik3r3 (GeneID 18710),1,1.08,inactive
Pik3r3 (GeneID 18710),2,0.184,inactive
Pik3r3 (GeneID 18710),3,-0.766,inactive
Pik3r3 (GeneID 18710),4,-1.78,active
Pik3r3 (GeneID 18710),5,-1.9,active
Pik3r3 (GeneID 18710),6,3.86,active
Ikbke (GeneID 56489),1,-0.667,inactive
Ikbke (GeneID 56489),2,-0.318,inactive
Ikbke (GeneID 56489),3,-0.587,inactive
Ikbke (GeneID 56489),4,-0.156,inactive
Ikbke (GeneID 56489),5,-0.819,inactive
Ikbke (GeneID 56489),6,1.43,inactive
Irak3 (GeneID 73914),1,-0.533,inactive
Irak3 (GeneID 73914),2,0.0167,inactive
Irak3 (GeneID 73914),3,-1.4,inactive
Irak3 (GeneID 73914),4,-1.12,inactive
Irak3 (GeneID 73914),5,0.68,inactive
Irak3 (GeneID 73914),6,-1.66,active
Ikbkg (GeneID 16151),1,-1.19,inactive
Ikbkg (GeneID 16151),2,-0.061,inactive
Ikbkg (GeneID 16151),3,-0.856,inactive
Ikbkg (GeneID 16151),4,-1.55,active
Ikbkg (GeneID 16151),5,-0.765,inactive
Ikbkg (GeneID 16151),6,-0.397,inactive
Map2k7 (GeneID 26400),1,0.969,inactive
Map2k7 (GeneID 26400),2,-0.769,inactive
Map2k7 (GeneID 26400),3,0.0374,inactive
Map2k7 (GeneID 26400),4,0.761,inactive
Map2k7 (GeneID 26400),5,0.413,inactive
Map2k7 (GeneID 26400),6,-1.29,inactive
Tlr8 (GeneID 170744),1,-0.686,inactive
Tlr8 (GeneID 170744),2,0.409,inactive
Tlr8 (GeneID 170744),3,-0.082,inactive
Tlr8 (GeneID 170744),4,0.0731,inactive
Tlr8 (GeneID 170744),5,-1.3,inactive
Tlr8 (GeneID 170744),6,1.78,active
Ifnar2 (GeneID 15976),1,2.14,active
Ifnar2 (GeneID 15976),2,-0.324,inactive
Ifnar2 (GeneID 15976),3,0.647,inactive
Ifnar2 (GeneID 15976),4,1.83,active
Ifnar2 (GeneID 15976),5,0.0594,inactive
Ifnar2 (GeneID 15976),6,3.33,active
Ifnar1 (GeneID 15975),1,-0.337,inactive
Ifnar1 (GeneID 15975),2,1.54,active
Ifnar1 (GeneID 15975),3,-1.34,inactive
Ifnar1 (GeneID 15975),4,-0.776,inactive
Ifnar1 (GeneID 15975),5,-0.181,inactive
Ifnar1 (GeneID 15975),6,-1.07,inactive
Map3k8 (GeneID 26410),1,0.223,inactive
Map3k8 (GeneID 26410),2,1.26,inactive
Map3k8 (GeneID 26410),3,-0.19,inactive
Map3k8 (GeneID 26410),4,-0.0618,inactive
Map3k8 (GeneID 26410),5,-0.251,inactive
Map3k8 (GeneID 26410),6,0.144,inactive
Il6 (GeneID 16193),1,-0.997,inactive
Il6 (GeneID 16193),2,-0.2,inactive
Il6 (GeneID 16193),3,0.178,inactive
Il6 (GeneID 16193),4,0.748,inactive
Il6 (GeneID 16193),5,-0.683,inactive
Il6 (GeneID 16193),6,-0.534,inactive
Map2k1 (GeneID 26395),1,0.0516,inactive
Map2k1 (GeneID 26395),2,-0.626,inactive
Map2k1 (GeneID 26395),3,-0.765,inactive
Map2k1 (GeneID 26395),4,-0.0843,inactive
Map2k1 (GeneID 26395),5,0.356,inactive
Map2k1 (GeneID 26395),6,-1.11,inactive
Il12b (GeneID 16160),1,0.0204,inactive
Il12b (GeneID 16160),2,1.47,inactive
Il12b (GeneID 16160),3,0.0891,inactive
Il12b (GeneID 16160),4,-0.795,inactive
Il12b (GeneID 16160),5,-1.8,active
Il12b (GeneID 16160),6,-1.41,inactive
Irak2 (GeneID 108960),1,-1.27,inactive
Irak2 (GeneID 108960),2,-0.295,inactive
Irak2 (GeneID 108960),3,-1.82,active
Irak2 (GeneID 108960),4,-0.701,inactive
Irak2 (GeneID 108960),5,-0.538,inactive
Irak2 (GeneID 108960),6,0.227,inactive
Mapk14 (GeneID 26416),1,0.459,inactive
Mapk14 (GeneID 26416),2,-0.258,inactive
Mapk14 (GeneID 26416),3,-0.238,inactive
Mapk14 (GeneID 26416),4,-1.28,inactive
Mapk14 (GeneID 26416),5,-1.1,inactive
Mapk14 (GeneID 26416),6,0.311,inactive
Tlr1 (GeneID 21897),1,0.27,inactive
Tlr1 (GeneID 21897),2,-0.457,inactive
Tlr1 (GeneID 21897),3,-1.18,inactive
Tlr1 (GeneID 21897),4,-0.53,inactive
Tlr1 (GeneID 21897),5,0.9,inactive
Tlr1 (GeneID 21897),6,-1.5,inactive
Nfkb1 (GeneID 18033),1,0.335,inactive
Nfkb1 (GeneID 18033),2,0.263,inactive
Nfkb1 (GeneID 18033),3,0.239,inactive
Nfkb1 (GeneID 18033),4,0.663,inactive
Nfkb1 (GeneID 18033),5,-0.612,inactive
Nfkb1 (GeneID 18033),6,0.699,inactive
Traf3 (GeneID 22031),1,0.178,inactive
Traf3 (GeneID 22031),2,-0.2,inactive
Traf3 (GeneID 22031),3,-0.297,inactive
Traf3 (GeneID 22031),4,0.533,inactive
Traf3 (GeneID 22031),5,-0.403,inactive
Traf3 (GeneID 22031),6,0.0584,inactive
Tlr7 (GeneID 170743),1,-1.04,inactive
Tlr7 (GeneID 170743),2,-1.79,active
Tlr7 (GeneID 170743),3,2,active
Tlr7 (GeneID 170743),4,-0.417,inactive
Tlr7 (GeneID 170743),5,-1.04,inactive
Tlr7 (GeneID 170743),6,1.6,active
Map2k2 (GeneID 26396),1,0.227,inactive
Map2k2 (GeneID 26396),2,-0.781,inactive
Map2k2 (GeneID 26396),3,-0.489,inactive
Map2k2 (GeneID 26396),4,2.91,active
Map2k2 (GeneID 26396),5,-0.157,inactive
Map2k2 (GeneID 26396),6,-0.797,inactive
Tlr3 (GeneID 142980),1,0.19,inactive
Tlr3 (GeneID 142980),2,1.3,inactive
Tlr3 (GeneID 142980),3,0.421,inactive
Tlr3 (GeneID 142980),4,-0.37,inactive
Tlr3 (GeneID 142980),5,-0.927,inactive
Tlr3 (GeneID 142980),6,-1.11,inactive
Tbkbp1 (GeneID 73174),1,-0.829,inactive
Tbkbp1 (GeneID 73174),2,-1.51,active
Tbkbp1 (GeneID 73174),3,1.07,inactive
Tbkbp1 (GeneID 73174),4,8.11,active
Tbkbp1 (GeneID 73174),5,-0.266,inactive
Tbkbp1 (GeneID 73174),6,-1.51,active
Elk1 (GeneID 13712),1,-0.121,inactive
Elk1 (GeneID 13712),2,-0.602,inactive
Elk1 (GeneID 13712),3,0.902,inactive
Elk1 (GeneID 13712),4,4.25,active
Elk1 (GeneID 13712),5,-0.332,inactive
Elk1 (GeneID 13712),6,-0.594,inactive
Arf6 (GeneID 11845),1,-0.567,inactive
Arf6 (GeneID 11845),2,-0.324,inactive
Arf6 (GeneID 11845),3,-1.42,inactive
Arf6 (GeneID 11845),4,-0.792,inactive
Arf6 (GeneID 11845),5,-0.613,inactive
Arf6 (GeneID 11845),6,-1.55,active
Mapk11 (GeneID 19094),1,0.883,inactive
Mapk11 (GeneID 19094),2,-0.649,inactive
Mapk11 (GeneID 19094),3,-0.267,inactive
Mapk11 (GeneID 19094),4,0.242,inactive
Mapk11 (GeneID 19094),5,-0.95,inactive
Mapk11 (GeneID 19094),6,0.412,inactive
